Laboratory results from paper PMC12216609, “Inhibitors of eIF1A-ribosome interaction unveil uORF-dependent regulation of translation initiation and antitumor and antiviral effects” (The EMBO Journal, 2025).
Read-outs that look alike come from different tables or passages of the source. Not every entry of the source has a single result; some have several. The other results are left out here. The source may hold further records. Values that stand side by side differ, and nothing given here explains why; dose, time, organism, isomer or construct need not be as stated for each record.

Legend:
[1] = system: IRF7 5'UTR firefly luciferase reporter in HEK293T cells; conditions: for Short: Normalized to average DMSO: Short reporter;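 for all read-outs here: luciferase signal corrected by a co-transfected GFP reporter for transfection efficiency, read after overnight compound exposure, with Long and Short reporters differing in 5'UTR length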
[2] = system: uORF-bearing 5'UTR firefly reporters in HEK293T cells; experiment: uORF reinitiation / leaky scanning firefly reporters; conditions: for FF vs RL 2 / averages of FF vs RL 2: 95nt experiment, block FF-2 (c153)
[3] = system: CUG/GUG vs AUG start codon luciferase reporters in HEK293T cells; experiment: Near-cognate AUG starting codon fidelity reporter assay (GUG, CUG vs AUG); assay type: cell-based; conditions: listed as 8214
1Ais toxicity in mice = assay type: in vivo, C57 black mice; conditions: group 2; individual animals

Structure (SMILES): COc1cc2nccc(Oc3ccc(NC(=O)Nc4cc(C)on4)c(Cl)c3)c2cc1OC
- Long: Normalized to average DMSO ([1]; listed as 4927): 0.3921, 0.2098, 0.137, 0.141

Structure (SMILES): O=C(/C=C/c1ccc(Cl)s1)Nc1cccc2ncccc12
- Short: Normalized to average DMSO ([1]; data section, GFP-corrected, 20 µM, per experiment, includes values excluded as outliers, listed as 4860): 0.8414, 0.8396, 1.6155, 0.7727

Structure (SMILES): O=C(COc1ccccc1[N+](=O)[O-])NCc1ccc(-c2ccc(Br)cc2)o1
- Long: Normalized to average DMSO ([1]; data section, Long reporter, GFP-corrected, 20 µM, per experiment, includes values excluded as outliers, listed as 4700): 0.8352, 0.378, 0.209, 0.5992
- Short: Normalized to average DMSO ([1]; data section, GFP-corrected, 20 µM, per experiment, includes values excluded as outliers, listed as 4700): 1.104, 0.6454, 2.338, 0.8681
- FF vs RL 2 ([2]; reporter minus 46, DMSO 0.0521225, 0.079704): 0.02662, 0.02707, 0.1018, 0.1662, 0.03733, 0.02176
- averages of FF vs RL 2 ([2]; reporter minus46, DMSO 0.079704): 0.02684, 0.134, 0.02954
- FF vs RL 2 ([2]; reporter minus 46 plus 50, DMSO 0.0854972, 0.116279): 0.1345, 0.1401, 0.261, 0.2146, 0.1248, 0.09833
- averages of FF vs RL 2 ([2]; reporter minus 95, DMSO 0.100888): 0.1373, 0.2378, 0.1116
- averages of FF vs RL 2 ([2]; reporter ref, DMSO 0.125352): 0.1035, 0.3719, 0.07639
- FF vs RL 2 ([2]; reporter reference, DMSO 0.151626, 0.0990775): 0.06994, 0.1371, 0.375, 0.3687, 0.07321, 0.07957
- normalized to DMSO, refference, biological repeats ([2]; refference reporter, biological repeats 1-4, listed as 4700): 0.891, 0.989, 0.575, 1.178

Structure (SMILES): O=C1c2ccccc2NC(c2cc(O)c(O)c(Cl)c2)N1c1ccccc1 (stereo not shown) [1A-8214]
- Long: Normalized to average DMSO ([1]; listed as 8214): 0.1988, 0.3048, 0.4317, 0.9084
- calculation: CUG (AUG = 100) [3]: 5.18 and 16.909
- calculation: GUG (AUG = 100) [3]: 1.769 and 4.804
- Euthanized Notes (1Ais toxicity in mice): 1/4 dark spleen and 1/2 of Spleen dark red

Structure (SMILES): NS(=O)(=O)c1cccc(-c2ccc(C3Nc4ccccc4-c4nc5ccccc5n43)o2)c1 (stereo not shown) [1Ai-0050]
- Long: Normalized to average DMSO ([1]; data section, Long reporter, GFP-corrected, 20 µM, per experiment, includes values excluded as outliers, listed as 0050): 1.251, 0.9381, 0.5424, 1.628
- Short: Normalized to average DMSO ([1]; data section, GFP-corrected, 20 µM, per experiment, includes values excluded as outliers, listed as 0050): 3.582, 0.7183, 4.9

Structure (SMILES): C=CCNC(=O)CN1CCN(Cc2nc3cc(-c4ccc(Cl)cc4)sc3c(=O)[nH]2)CC1 [1Ai-1524]
- Long: Normalized to average DMSO ([1]; data section, Long reporter, GFP-corrected, 20 µM, per experiment, includes values excluded as outliers, listed as 1524): 0.6159, 0.2117, 0.427, 0.5227
- Short: Normalized to average DMSO ([1]; data section, GFP-corrected, 20 µM, per experiment, includes values excluded as outliers, listed as 1524): 0.5026, 0.6608, 1.765, 0.409

Structure (SMILES): CCOC(=O)c1ccsc1NC(=O)CN1C(=O)NC(C)(c2cccc3ccccc23)C1=O (stereo not shown) [1Ai-1861]
- Short: Normalized to average DMSO ([1]; data section, GFP-corrected, 20 µM, per experiment, includes values excluded as outliers, listed as 1861): 0.2761, 0.3541, 0.5218, 0.6776

Structure (SMILES): COc1cccc(Nc2nc(-c3ccc(NC(C)=O)cc3)c(C)s2)c1 [1Ai-1869]
- Long: Normalized to average DMSO ([1]; data section, Long reporter, GFP-corrected, 5 µM, per experiment, listed as 1869): 0.511, 0.2492, 0.6117

Structure (SMILES): O=c1cc(CN2CCOCC2)occ1OCCCCCSc1ccnc2cc(C(F)(F)F)ccc12 [1Ai-5730]
- Long: Normalized to average DMSO ([1]; data section, Long reporter, GFP-corrected, 10 µM, per experiment, listed as 5730): 0.655 and 0.3999

Structure (SMILES): Oc1cc(Cl)ccc1Oc1ccc(Cl)cc1Cl [1Ai-6248]
- Long: Normalized to average DMSO ([1]; data section, Long reporter, GFP-corrected, 5 µM, per experiment, listed as 6248): 0.427, 0.8225, 0.5097, 0.3257

Structure (SMILES): Cc1cc(-n2c(C)cc(-c3csc(N)n3)c2C)no1 [1Ai-6464]
- Short: Normalized to average DMSO ([1]; data section, GFP-corrected, 20 µM, per experiment, includes values excluded as outliers, listed as 6464): 0.1632, 1.353, 0.6742, 1.063

Structure (SMILES): Cc1ccc(C)n1-c1cc([N+](=O)[O-])ccc1N1CCN(C(=O)c2ccccc2)CC1 [1Ai-9008]
- Short: Normalized to average DMSO ([1]; data section, GFP-corrected, 20 µM, per experiment, includes values excluded as outliers, listed as 9008): 0.6588, 0.5909, 0.2377, 0.2631

Structure (SMILES): O=S(=O)(c1ccccc1)N1CCN(C2c3ccccc3-c3ccccc32)CC1 [1Ai-9025]
- Short: Normalized to average DMSO ([1]; data section, GFP-corrected, 20 µM, per experiment, includes values excluded as outliers, listed as 9025): 0.3982, 1.3, 0.7343, 1.513

Structure (SMILES): COC(=O)C1=C(C)NC2=C(C(=O)CC(c3ccc(F)cc3)C2)C1c1ccc(N(C)C)cc1Cl (stereo not shown) [1Ai-9162]
- Long: Normalized to average DMSO ([1]; data section, Long reporter, GFP-corrected, 20 µM, per experiment, includes values excluded as outliers, listed as 9162): 0.5387, 0.5337, 0.2707, 0.6401
- Short: Normalized to average DMSO ([1]; data section, GFP-corrected, 20 µM, per experiment, includes values excluded as outliers, listed as 9162): 0.543, 0.4733, 0.458, 1.459
